# Test results: publication PMC6562968
# Amino acid sequences for entries named in this document (tags omitted).
# UniProt P49841: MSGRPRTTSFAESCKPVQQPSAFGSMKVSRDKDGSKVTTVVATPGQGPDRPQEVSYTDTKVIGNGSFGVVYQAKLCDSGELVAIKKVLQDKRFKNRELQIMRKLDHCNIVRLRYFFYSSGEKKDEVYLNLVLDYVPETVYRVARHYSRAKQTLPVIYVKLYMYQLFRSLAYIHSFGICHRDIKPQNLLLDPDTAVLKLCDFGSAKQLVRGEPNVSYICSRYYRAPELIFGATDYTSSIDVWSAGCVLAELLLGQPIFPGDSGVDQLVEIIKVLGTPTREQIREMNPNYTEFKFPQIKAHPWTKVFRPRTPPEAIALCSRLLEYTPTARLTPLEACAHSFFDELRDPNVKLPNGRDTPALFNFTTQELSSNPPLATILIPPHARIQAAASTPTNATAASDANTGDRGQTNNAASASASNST
# Results are given in words; binding and its absence hold for the method and conditions named. Binding seen in cells or lysates may run through a third protein. Some binding calls cover weakened binding; strength is not graded here. Where a sequence is shown, tags or fusion partners need not be part of it.
# Biological target: T1, GST–NDRG2 (N-Myc downstream-regulated gene 2) (UniProt Q9UN36)
# T1 sequence: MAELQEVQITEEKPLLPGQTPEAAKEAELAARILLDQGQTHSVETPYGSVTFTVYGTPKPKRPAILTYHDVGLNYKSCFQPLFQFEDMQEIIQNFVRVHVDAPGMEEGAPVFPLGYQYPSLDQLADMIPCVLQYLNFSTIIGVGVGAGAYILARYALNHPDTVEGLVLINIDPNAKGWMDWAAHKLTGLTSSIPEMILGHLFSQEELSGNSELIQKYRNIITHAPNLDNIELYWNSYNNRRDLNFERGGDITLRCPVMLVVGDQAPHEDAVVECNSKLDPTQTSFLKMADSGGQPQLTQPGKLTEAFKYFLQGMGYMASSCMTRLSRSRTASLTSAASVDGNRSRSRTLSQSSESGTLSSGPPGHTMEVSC
# Experiment: pull-down; GST pull-down on glutathione sepharose 4B from lysates of HEK293 cells co-transfected with GST, GST–NDRG2 or NDRG2 ΔC and HA–GSK3β; 0.5% NP40, 50 mM Tris-HCl pH 8.0, 150 mM NaCl, 4 °C overnight; immunoblotting
substance,measurement,value
HA–GSK3β (glycogen synthase kinase 3β) (from UniProt P49841 1-420) (enzyme),binding,binds
